The list is a part of this screen's results and no random one: it gathers tests that were run many times, whatever their T/C, doses with no T/C, and many T/C values between a quarter and a half above the control. Other doses and runs of a compound stand elsewhere. T/C gives the treated animals as a percentage of the vehicle group. Some doses have a count of surviving animals in place of a T/C: the source holds a T/C of zero for them, seemingly a mark for toxic or unscored doses. Some doses without a T/C left all or most animals alive at the check, yet need not have been tolerated: the source hardly ever lists a survival T/C far under the control, and the zero likely stands for such cases as well. Survivors were counted at the toxicity check, usually on the fifth day, unless a day is given; later deaths do not show. Schedule codes are those of the source, taken here to give the interval after Q, in days (D) or hours (H), and the number of doses after X. Some doses were run more than once; their values stand side by side, smallest first. Where survival is the endpoint, the PubChem record calls one and a half times the control and up active, and a quarter to a half above the control has no call in these data; cut-offs in other NCI protocols can differ.
Test system: CD2F1 mice, L1210 leukemia ip, survival T/C
Experiment: NCI In Vivo Anticancer Drug Screen. Data for tumor model L1210 Leukemia (intraperitoneal) in CD2F1 (CDF1) mice
Conditions: higher T/C = longer survival
Method in brief: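 Transplantable tumor in mice; compound-treated vs vehicle-treated groups. Read-out = treated/control ratio of the measured endpoint.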

[1] = T/C endpoint: mean survival time, dose: 400.0 mg/kg/injection, schedule: Q01DX001 (ip), vehicle: saline
[2] = T/C endpoint: mean survival time, dose: 25.0 mg/kg/injection, schedule: Q01DX009 (ip), vehicle: saline with Tween-80

## O=c1[nH]cnc2c1nnn2C1OC(CO)C(O)C1O (centres undefined)
T/C endpoint: median survival time, dose: 50.0 mg/kg/injection, schedule: Q01DX005 (ip), vehicle: saline
  T/C: 133 % of control
T/C endpoint: median survival time, dose: 72.0 mg/kg/injection, schedule: Q01DX005 (ip), vehicle: saline
  T/C: 132 % of control
T/C endpoint: median survival time, dose: 100.0 mg/kg/injection, schedule: Q01DX005 (ip), vehicle: saline
  T/C: 133 and 140 % of control
T/C endpoint: median survival time, dose: 120.0 mg/kg/injection, schedule: Q01DX005 (ip), vehicle: saline
  T/C: 142 % of control
T/C endpoint: median survival time, dose: 144.0 mg/kg/injection, schedule: Q01DX005 (ip), vehicle: suspension in saline
  T/C: 141 % of control
T/C endpoint: median survival time, dose: 200.0 mg/kg/injection, schedule: Q01DX005 (ip), vehicle: saline
  T/C: 143 % of control
T/C endpoint: median survival time, dose: 240.0 mg/kg/injection, schedule: Q01DX005 (ip), vehicle: suspension in saline
  T/C: 138 % of control
T/C endpoint: median survival time, dose: 333.3 mg/kg/injection, schedule: Q01DX005 (ip), vehicle: saline
  T/C: 148 % of control
T/C endpoint: median survival time, dose: 400.0 mg/kg/injection, schedule: Q01DX005 (ip), vehicle: saline
  T/C: 134 % of control
T/C endpoint: median survival time, dose: 555.5 mg/kg/injection, schedule: Q01DX005 (ip), vehicle: saline
  T/C: 144 % of control
T/C endpoint: median survival time, dose: 666.6 mg/kg/injection, schedule: Q01DX005 (ip), vehicle: suspension in saline
  survivor count: 6 of 6
T/C endpoint: median survival time, dose: 800.0 mg/kg/injection, schedule: Q01DX005 (ip), vehicle: saline
  survivor count: 5 of 6
T/C endpoint: median survival time, dose: 1111.1 mg/kg/injection, schedule: Q01DX005 (ip), vehicle: suspension in saline
  survivor count: 5 of 6

## COC1/C=C\C=C(/C)C(=O)NC2=CC(=O)C=C(C2=O)C(OC)C(C)CC(OC)C(OC)C(C)/C=C(/C)C1OC(N)=O (centres undefined)
T/C endpoint: mean survival time, dose: 3.0 mg/kg/injection, schedule: Q01DX009 (ip), vehicle: Klucel (hydroxypropylcellulose) (HPC)
  survivor count: 7 of 10
T/C endpoint: mean survival time, dose: 6.0 mg/kg/injection, schedule: Q01DX009 (ip), vehicle: Klucel (hydroxypropylcellulose) (HPC)
  survivor count: 0 of 10, 0 of 6, 4 of 6
T/C endpoint: mean survival time, dose: 12.0 mg/kg/injection, schedule: Q01DX009 (ip), vehicle: Klucel (hydroxypropylcellulose) (HPC)
  survivor count: 1 of 6
T/C endpoint: mean survival time, dose: 24.0 mg/kg/injection, schedule: Q01DX009 (ip), vehicle: Klucel (hydroxypropylcellulose) (HPC)
  survivor count: 0 of 6

## CCc1ccc(C2=C(O)C(=O)C(c3ccccc3)=C(O)C2=O)cc1
T/C endpoint: mean survival time, dose: 110.0 mg/kg/injection, schedule: Q01DX009 (ip), vehicle: acetone
  survivor count: 0 of 6
T/C endpoint: mean survival time, dose: 170.0 mg/kg/injection, schedule: Q01DX009 (ip), vehicle: acetone
  survivor count: 0 of 6
T/C endpoint: mean survival time, dose: 225.0 mg/kg/injection, schedule: Q01DX009 (ip), vehicle: acetone
  survivor count: 0 of 6

## CSc1ccc(NC(=O)N(CCCl)N=O)cc1
T/C endpoint: mean survival time, dose: 5.3 mg/kg/injection, schedule: Q01DX001 (ip), vehicle: other
  T/C: 136 % of control

## NC(=O)n1ccnc1
[1]
  survivor count: 2 of 6

## COc1ccc2nc3cc(Cl)ccc3c(NCCC[N+](C)(C)CCCCCCCCCC[N+](C)(C)CCCNc3c4ccc(Cl)cc4nc4ccc(OC)cc34)c2c1
T/C endpoint: mean survival time, dose: 12.5 mg/kg/injection, schedule: Q01DX009 (ip), vehicle: saline with Tween-80
  survivor count: 0 of 6
[2]
  survivor count: 0 of 6

## CCCCCCCCCCCCCCCC(=O)N1CCN(C)CC1
T/C endpoint: mean survival time, dose: 200.0 mg/kg/injection, schedule: Q01DX009 (ip), vehicle: saline with Tween-80
  survivor count: 3 of 6
T/C endpoint: mean survival time, dose: 400.0 mg/kg/injection, schedule: Q04DX003 (ip), vehicle: saline with Tween-80
  survivor count: 2 of 6

## O=c1[nH]c2ccccc2nc1CBr
[2]
  survivor count: 1 of 6
T/C endpoint: mean survival time, dose: 30.0 mg/kg/injection, schedule: Q01DX009 (ip), vehicle: saline with Tween-80
  survivor count: 5 of 6
T/C endpoint: mean survival time, dose: 50.0 mg/kg/injection, schedule: Q01DX009 (ip), vehicle: saline with Tween-80
  survivor count: 4 of 6

## CC(=O)NC1=CC(OC(C)=O)C(COC(C)=O)OC1n1cnc2c1c(=O)n(C)c(=O)n2C (centres undefined)
T/C endpoint: mean survival time, dose: 100.0 mg/kg/injection, schedule: Q01DX005 (ip), vehicle: distilled water + Tween-80
  survivor count: 6 of 6

## O=S(=O)(/C(=C\c1ccccc1)c1ccccc1)c1ccccc1
T/C endpoint: mean survival time, dose: 100.0 mg/kg/injection, schedule: Q01DX009 (ip), vehicle: saline
  survivor count: 6 of 6

## CC(=O)C1COC(O)C1C (centres undefined)
T/C endpoint: mean survival time, dose: 100.0 mg/kg/injection, schedule: Q01DX001 (ip), vehicle: saline
  survivor count: 0 of 6
T/C endpoint: mean survival time, dose: 200.0 mg/kg/injection, schedule: Q01DX001 (ip), vehicle: saline
  survivor count: 0 of 6
[1]
  survivor count: 0 of 6
